# Results: US20060013794A1, “Cosmetic or pharmaceutical composition comprising peptides with the sequences arggly-ser” (priority 2002, published 2006)
# Not every detail of the peptide structures is certain; ends, links or a residue may be inferred. Where a SMILES comes first, the peptide text is derived from it.
# Columns and labels:
# Format in all cases: cell-based
# [1] = system: fibroblasts; test: Intracellular ATP, ATP Bioluminescence Assay Kit HS II, fibroblasts; conditions: for percent increase of luminescence (intracellular ATP) vs untreated cells: peptide 10^-6 M
# [2] = system: differentiated preadipocyte cell line, 3T3-L1 (adipocytes); test: Intracellular ATP, ATP Bioluminescence Assay Kit HS II, 3T3-L1 adipocytes; conditions: for percent increase of luminescence (intracellular ATP) vs untreated cells: 1% of a 50 ppm solution
# [3] = system: Human fibroblasts; test: Immunofluorescence of fibronectin and collagen types I and III in fibroblasts
# [4] = system: HaCat human keratinocytes; test: Immunofluorescence of keratin (anti-keratin Pan cK antibodies) in keratinocytes; conditions: at 24 hours
# [5] = system: 3T3-L1 preadipocyte cell line (mature adipocytes); test: Microscopic observation of lipid vacuoles in adipocytes after Oil Red coloring; conditions: mature 3T3-L1 adipocytes, 1% solution of a 50 ppm solution
# [6] = system: 3T3-L1 adipocytes; test: Intracellular cAMP in adipocytes, cAMP Biotrak EIA System
# [7] = peptide 10^-6 M, vs control without peptide
compound,measurement,setting,value
N=C(N)NCCC[C@H](N)C(=O)NCC(=O)N[C@@H](CO)C(=O)O [Arg-Gly-Ser] (H-Arg-Gly-Ser-OH),time at which the ATP increase begins,[1],5 min
same,time of maximum ATP increase after administration,[1],15 min
same,time of return approximately to basal ATP state,[1],~2 h
same,percent increase of luminescence (intracellular ATP) vs untreated cells,[1]; t = 3 heures,+0.2%
same,percent increase of luminescence (intracellular ATP) vs untreated cells,[1]; t = 5 min,"+60%,"
same,percent increase of luminescence (intracellular ATP) vs untreated cells,[1]; t = 15 min,+75%
same,percent increase of luminescence (intracellular ATP) vs untreated cells,[1]; t = 30 min,+45%
same,time of maximum ATP increase after application,[2],15 min
same,percent increase of luminescence (intracellular ATP) vs untreated cells,[2]; t = 3 heures,+16%
same,percent increase of luminescence (intracellular ATP) vs untreated cells,[2]; t = 5 min,+1%
same,percent increase of luminescence (intracellular ATP) vs untreated cells,[2]; t = 15 min,+30%
same,intensity of fluorescence (fibronectin and/or collagen I and/or collagen III synthesis),"[3]; after 12 hours, compared to untreated cells",increase
same,collagen I synthesis (fluorescence intensity),[3]; [7],increase
same,collagen III synthesis (fluorescence intensity),[3]; [7],increase
same,synthesis of fibronectin (fluorescence intensity),[3]; [7],increase
same,keratin synthesis (fluorescence intensity),[4],increasing
same,intra-adipocyte vesicle content,"[5]; Oil Red, vs control adipocytes",clearly reduced
same,adipocyte form,"[5]; vs spherical, bulky control adipocytes",less round
same,time of maximum cAMP increase after administration,[6],30 min
same,% of increase of intracellular cAMP concentration vs untreated cells,[6]; t = 15 min,+8.6%
same,% of increase of intracellular cAMP concentration vs untreated cells,[6]; t = 30 min,+33%
same,% of increase of intracellular cAMP concentration vs untreated cells,[6]; t = 2 h.,+28%
